Patent publication US11427783B2, “Perfuming compositions” (Firmenich SA, priority 2016, dated 2022)
Counter-ions that a name gives are not always drawn.

Assay: Odor threshold of perfuming compounds in air
[1] = Table 5, perfuming compounds having a green note
[2] = Table 6, perfuming compounds having a fruity note
[3] = perfuming compounds having a fruity note (Table 6)
[4] = Table 8, perfuming compounds having a sweet note
[5] = Table 9, perfuming compounds having a gourmand note
[6] = Table 10, perfuming compounds having a woody note

Compound | Odor Threshold [1] | Odor Threshold (μg/l air) [2] | also measured
COc1ccc(C=O)cc1 [4-METHOXYBENZALDEHYDE] | 1.81E−05 μg/l air |  | 
COc1ccc(COC(C)=O)cc1 [4-METHOXYBENZYL ACETATE] |  | 9.24E−05 μg/l air | 
Cc1ccc(OC(=O)C(C)C)cc1 [4-METHYLPHENYL ISOBUTYRATE] |  |  | Odor Threshold [3]: 1.66E−05 μg/l air
CC(=O)CCc1ccccc1 [4-PHENYL-2-BUTANONE] | 2.22E−04 μg/l air |  | Odor Threshold [3]: 2.22E−04 μg/l air
COc1cc(C=O)ccc1O [4-hydroxy-3-methoxybenzaldehyde] |  |  | Odor Threshold (μg/l air) [4]: 6.75E−06 μg/l air; Odor Threshold (μg/l air) [5]: 6.75E−06 μg/l air
CC(=O)OC1CCC2C(C)(C)CCCC2(C)C1 (stereo not drawn) [5,5,8a-trimethyldecahydro-2-naphthalenyl acetate] |  |  | Odor Threshold (μg/l air) [6]: 4.19E−04 μg/l air
CC=CC(=O)C(C)CC (stereo not drawn) [5-METHYL-2-HEPTEN-4-ONE] |  |  | Odor Threshold (μg/l air) [4]: 7.62E−07 μg/l air
CCC(CC(C)CC)=NO (stereo not drawn) [5-METHYL-3-HEPTANONE OXIME] | 8.80E−03 μg/l air | 8.80E−03 μg/l air | Odor Threshold (μg/l air) [4]: 8.80E−03 μg/l air
CCC(CC(C)CC)=NO (stereo not drawn) [5-METHYL-3-HEPTANONEOXIME] |  |  | Odor Threshold (μg/l air) [5]: 8.80E−03 μg/l air
CCC(=O)CC(C)CC (stereo not drawn) [5-METHYL-3-HEPTANONE] |  |  | Odor Threshold [3]: 9.87E−02 μg/l air
CCCCC1CCCC(=O)O1 (stereo not drawn) [5-NONANOLIDE] |  | 1.16E−05 μg/l air | Odor Threshold (μg/l air) [4]: 1.16E−05 μg/l air; Odor Threshold (μg/l air) [5]: 1.16E−05 μg/l air
CC(=O)CCC=C(C)C [6-METHYL-5-HEPTEN-2-ONE] | 1.06E−01 μg/l air |  | Odor Threshold [3]: 1.06E−01 μg/l air
CC(C)(C)c1ccc2c(c1)OCC(=O)CO2 [7-(2-methyl-2-propanyl)-2H-1,5-benzodioxepin-3(4H)-one] | 1.53E−04 μg/l air |  | 
CCCc1ccc2c(c1)OCC(=O)CO2 [7-PROPYL-2H,4H-1,5-BENZODIOXEPIN-3-ONE] | 6.43E−05 μg/l air |  | 
CC1=CC2CC(C=O)C1CC2C(C)C (stereo not drawn) [8-ISOPROPYL-6-METHYL-BICYCLO[2.2.2]OCT-5-ENE-2-CARBALDEHYDE] | 7.11E−05 μg/l air |  | 
C=CCCCCCCCCO [9-DECEN-1-OL] |  | 8.92E−03 μg/l air | 
C[C@@H]1CC[C@@H](C(C)(C)S)C(=O)C1 [(1R,4R)-8-MERCAPTO-3-P-MENTHANONE] | 3.43E−05 μg/l air |  | Odor Threshold [3]: 3.43E−05 μg/l air
COCCc1ccccc1 [(2-METHOXYETHYL)BENZENE] | 6.32E−04 μg/l air |  | 
CCC/C=C/C=O [(2E)-2-HEXENAL] | 2.53E−03 μg/l air |  | Odor Threshold [3]: 2.53E−03 μg/l air
CCCCCC/C(C=O)=C\c1ccccc1 [(2E)-2-benzylideneoctanal] | 1.91E−03 μg/l air | 1.91E−03 μg/l air | 
CC/C=C\CC/C=C/CO [(2E,6Z)-2,6-NONADIEN-1-OL] | 3.22E−06 μg/l air |  | 

Compound | Odor Threshold [1] | Odor Threshold (μg/l air) [2] | also measured
CC/C=C\CC/C=C/C=O [(2E,6Z)-2,6-NONADIENAL″, (2E,6Z)-2,6-NONADIENAL] | 1.46E−04 μg/l air |  | 
CC(=O)OC/C=C(/C)CCC=C(C)C [(2Z)-3,7-dimethyl-2,6-octadien-1-yl acetate] |  | 6.02E−02 μg/l air | 
CC(=O)/C=C/C1=C(C)CCCC1(C)C [(3E)-4-(2,6,6-trimethyl-1-cyclohexen-1-yl)-3-buten-2-one] |  |  | Odor Threshold (μg/l air) [6]: 3.58E−05 μg/l air
CC/C=C\CCOC(=O)C/C=C\CC [(3Z)-3-hexen-1-yl (3Z)-3-hexenoate] | 5.17E−02 μg/l air |  | Odor Threshold (μg/l air) [4]: 5.17E−02 μg/l air; Odor Threshold (μg/l air) [5]: 5.17E−02 μg/l air; Odor Threshold [3]: 5.17E−02 μg/l air
CC/C=C\CCOC(=O)c1ccccc1 [(3Z)-3-hexen-1-yl benzoate] | 4.37E−02 μg/l air | 4.37E−02 μg/l air | 
CC/C=C\CCOC(=O)CCC [(3Z)-3-hexen-1-yl butyrate] | 7.85E−02 μg/l air |  | Odor Threshold [3]: 7.85E−02 μg/l air
CC/C=C\CCOC(=O)c1ccccc1O [(3Z)-3-hexen-1-yl salicylate] | 3.23E−04 μg/l air |  | 
CC/C=C\CCOC(=O)OC [(3Z)-hex-3-en-1-yl methyl carbonate] | 4.58E−02 μg/l air |  | Odor Threshold [3]: 4.58E−02 μg/l air
O=C1CCCCCCC/C=C/CCCCCCO1 [(10E)-oxacycloheptadec-10-en-2-one] |  | 4.77E−04 μg/l air | 
CCC/C=C/CO [(E)-2-HEXEN-1-OL] | 1.29E−01 μg/l air |  | 
CCC/C=C/COC(C)=O [(E)-2-HEXENYL ACETATE] | 2.08E−01 μg/l air |  | Odor Threshold [3]: 2.08E−01 μg/l air
C/C=C/c1ccc(OC(C)=O)c(OC)c1 [(E)-2-METHOXY-4-(1-PROPENYL)PHENYL ACETATE] |  | 4.08E−07 μg/l air | 
CCCCC/C(C=O)=C\c1ccccc1 [(E)-2-PENTYL-3-PHENYL-2-PROPENAL] |  | 3.64E−04 μg/l air | 
CC(=O)OC/C=C(\C)CCC=C(C)C [(E)-3,7-DIMETHYL-2,6-OCTADIENYL ACETATE] | 3.57E−02 μg/l air | 3.57E−02 μg/l air | 
O=C/C=C/c1ccccc1 [(E)-3-PHENYL-2-PROPENAL] |  |  | Odor Threshold (μg/l air) [6]: 1.36E−03 μg/l air
N#C/C=C/c1ccccc1 [(E)-3-PHENYL-2-PROPENENITRILE] |  |  | Odor Threshold (μg/l air) [6]: 8.97E−05 μg/l air
CC(=O)OC/C=C/c1ccccc1 [(E)-3-PHENYL-2-PROPENYL ACETATE] |  | 1.87E−04 μg/l air | 
CCC(=O)OC/C=C/c1ccccc1 [(E)-3-PHENYL-2-PROPENYL PROPANOATE] |  | 1.28E−04 μg/l air | 
CCOCOC1CCCCCCCCCCC1 [(ETHOXYMETHOXY)CYCLODODECANE] |  |  | Odor Threshold (μg/l air) [6]: 8.90E−02 μg/l air
CC/C=C\CCO [(Z)-3-HEXEN-1-OL] | 1.13E−02 μg/l air |  | 
CC/C=C\CCOC(C)=O [(Z)-3-HEXENYL ACETATE] | 1.00E−02 μg/l air |  | 

Compound | Odor Threshold [1] | Odor Threshold (μg/l air) [2] | also measured
CC/C=C\CCOC=O [(Z)-3-HEXENYL FORMATE] | 2.11E−03 μg/l air |  | Odor Threshold [3]: 2.11E−03 μg/l air
CC/C=C\CCOC(=O)C(C)C [(Z)-3-HEXENYL ISOBUTYRATE] | 4.54E−02 μg/l air |  | Odor Threshold [3]: 4.54E−02 μg/l air
CCCCC/C=C\CCC=O [(Z)-4-DECENAL] | 3.78E−05 μg/l air |  | 
CC/C=C\CCCCC=O [(Z)-6-NONENAL] | 2.91E−05 μg/l air |  | 
CCCOC(=O)[C@H](C)OC(C)(C)CC [(−)-PROPYL (S)-2-(1,1-DIMETHYLPROPOXY)PROPANOATE] |  |  | Odor Threshold [3]: 4.98E−01 μg/l air
C=CCOC(=O)CCC1CCCCC1 [ALLYL 3-CYCLOHEXYLPROPANOATE] | 7.96E−03 μg/l air | 7.96E−03 μg/l air | Odor Threshold (μg/l air) [4]: 7.96E−03 μg/l air; Odor Threshold (μg/l air) [5]: 7.96E−03 μg/l air
C=CCOC(=O)COC1CCCCC1 [ALLYL (CYCLOHEXYLOXY)ACETATE] | 4.66E−05 μg/l air | 4.66E−05 μg/l air | 
C=CCOC(=O)CCCCCC [ALLYL HEPTANOATE] | 1.75E−02 μg/l air |  | Odor Threshold (μg/l air) [4]: 1.75E−02 μg/l air; Odor Threshold (μg/l air) [5]: 1.75E−02 μg/l air; Odor Threshold [3]: 1.75E−02 μg/l air
C=CCOC(=O)CCCCC [ALLYL HEXANOATE] |  |  | Odor Threshold [3]: 4.58E−02 μg/l air
C=CCOC(=O)COc1ccccc1 [ALLYL PHENOXYACETATE] | 1.22E−03 μg/l air | 1.22E−03 μg/l air | 
CC(C)CC(=O)OCc1ccccc1 [BENZYL 3-METHYLBUTANOATE] |  | 7.31E−03 μg/l air | Odor Threshold (μg/l air) [4]: 7.31E−03 μg/l air
C/C=C(\C)C(=O)OCc1ccccc1 [BENZYL (E)-2-METHYL-2-BUTENOATE] |  | 3.07E−04 μg/l air | Odor Threshold (μg/l air) [6]: 3.07E−04 μg/l air
O=C(OCc1ccccc1)c1ccccc1 [BENZYL BENZOATE] |  | 3.67E−02 μg/l air | 
O=COCc1ccccc1 [BENZYL FORMATE] | 3.23E−01 μg/l air |  | 
CCC(=O)OCc1ccccc1 [BENZYL PROPANOATE] | 2.81E−02 μg/l air | 2.81E−02 μg/l air | 
CCCCOC(C)=O [BUTYL ACETATE] |  |  | Odor Threshold (μg/l air) [4]: 4.18E−01 μg/l air; Odor Threshold (μg/l air) [5]: 4.18E−01 μg/l air; Odor Threshold [3]: 4.18E−01 μg/l air
N#CC(=C1CCCCC1)c1ccccc1 [CYCLOHEXYLIDENE(PHENYL)ACETONITRILE] | 3.31E−04 μg/l air |  | 
C=CCSSCC=C [DIALLYL DISULFIDE] |  |  | Odor Threshold (μg/l air) [4]: 3.98E−05 μg/l air; Odor Threshold (μg/l air) [5]: 3.98E−05 μg/l air
CCCCSCCCC [DIBUTYL SULFIDE] | 2.34E−02 μg/l air |  | 
CCOC(=O)C1OC1(C)c1ccccc1 (stereo not drawn) [ETHYL 2,3-EPDXY-3-PHENYLBUTANOATE] |  | 2.28E−05 μg/l air | 
